doi:10.1101/2021.12.02.470941
No constants are given. Whether binding was seen depends on the method and setting. In cells and extracts the contact can be indirect. Some entries that bind do so weakly or less than the wild type.

By UniProt entry, the sequences of proteins in these tests, tags left out. Where a name states a change or a piece, a line headed by the entry shows the natural chain unless it says otherwise.
UniProt P25098, whole entry: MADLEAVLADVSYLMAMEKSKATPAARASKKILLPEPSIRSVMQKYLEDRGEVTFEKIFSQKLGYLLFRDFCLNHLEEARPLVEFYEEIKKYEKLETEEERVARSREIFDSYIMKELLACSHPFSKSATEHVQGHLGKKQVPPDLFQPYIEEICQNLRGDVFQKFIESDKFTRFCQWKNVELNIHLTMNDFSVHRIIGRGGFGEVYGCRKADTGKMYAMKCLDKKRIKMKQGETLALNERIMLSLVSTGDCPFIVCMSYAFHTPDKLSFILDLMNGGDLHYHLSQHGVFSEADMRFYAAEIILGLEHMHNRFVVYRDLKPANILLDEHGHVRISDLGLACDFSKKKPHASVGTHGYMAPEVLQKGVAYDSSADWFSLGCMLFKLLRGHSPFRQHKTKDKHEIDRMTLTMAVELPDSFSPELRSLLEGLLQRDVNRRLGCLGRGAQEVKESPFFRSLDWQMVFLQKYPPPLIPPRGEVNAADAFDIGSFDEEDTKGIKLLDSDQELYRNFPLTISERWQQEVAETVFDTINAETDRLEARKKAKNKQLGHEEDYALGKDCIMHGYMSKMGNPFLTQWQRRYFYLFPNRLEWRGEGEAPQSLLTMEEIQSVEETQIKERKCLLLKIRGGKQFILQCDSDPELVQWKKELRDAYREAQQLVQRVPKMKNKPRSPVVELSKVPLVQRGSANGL

Experiments:
[1] = target: µ opioid receptor fused to sYFP2 (MOR-sYFP2) (rat) (UniProt P33535); assay: FRET or BRET
MOR-H297A mutant (rat) = MOR-H297A mutant (rat) (UniProt P33535); assay: FRET or BRET

In the case of “GRK2-mTur2 (from UniProt P25098 1-689) (enzyme)”, the binding [1] was “binds” and the binding (MOR-H297A mutant (rat)) was “binds”.
